Measured values published in paper PMC7069074.
These are yes or no findings as the source states them, for the method shown. In cells and extracts the contact can be indirect. Some binding calls cover weakened binding; strength is not graded here.

Chains of the proteins cited; added tags and fusions are not shown.
UniProt P03372: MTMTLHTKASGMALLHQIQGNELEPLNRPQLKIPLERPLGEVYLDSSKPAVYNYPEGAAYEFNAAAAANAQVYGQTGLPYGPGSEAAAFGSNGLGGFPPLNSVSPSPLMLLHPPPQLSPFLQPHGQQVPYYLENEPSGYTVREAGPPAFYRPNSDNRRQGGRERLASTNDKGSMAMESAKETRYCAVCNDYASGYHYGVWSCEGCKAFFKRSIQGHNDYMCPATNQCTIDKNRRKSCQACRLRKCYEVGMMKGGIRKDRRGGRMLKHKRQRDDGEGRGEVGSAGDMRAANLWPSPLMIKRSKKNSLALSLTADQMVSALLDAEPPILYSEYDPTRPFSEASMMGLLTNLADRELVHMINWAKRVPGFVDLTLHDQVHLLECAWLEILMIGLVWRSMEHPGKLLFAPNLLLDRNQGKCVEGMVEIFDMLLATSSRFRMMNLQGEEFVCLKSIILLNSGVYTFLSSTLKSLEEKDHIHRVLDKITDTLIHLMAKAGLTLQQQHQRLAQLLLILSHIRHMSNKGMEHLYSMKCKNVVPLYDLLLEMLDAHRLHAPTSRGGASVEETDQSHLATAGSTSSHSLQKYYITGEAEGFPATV
UniProt P67809: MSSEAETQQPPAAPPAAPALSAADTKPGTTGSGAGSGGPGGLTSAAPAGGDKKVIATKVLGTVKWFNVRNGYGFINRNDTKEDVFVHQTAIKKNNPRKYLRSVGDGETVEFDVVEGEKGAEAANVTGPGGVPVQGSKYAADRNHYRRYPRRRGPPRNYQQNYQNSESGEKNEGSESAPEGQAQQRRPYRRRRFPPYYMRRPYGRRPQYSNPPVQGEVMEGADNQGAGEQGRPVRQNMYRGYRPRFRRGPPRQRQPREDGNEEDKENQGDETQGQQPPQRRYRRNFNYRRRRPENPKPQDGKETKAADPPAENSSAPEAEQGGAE

Key:
[1] = molecular target: estrogen receptor alpha (ERα) (human (endogenous in MCF-7 and ZR-75-1)) (UniProt P03372); test: co-IP; lysates of MCF-7 and ZR-75-1 NCSCs (differentiated cells), and of CSCs exposed to 1% FBS; antibody on Protein G-agarose beads, lysate 12 h at 4 °C, washed three times with ice-cold PBS, western blot
[2] = molecular target: estrogen receptor alpha (ERα) (human (endogenous in MCF-7 and ZR-75-1)) (UniProt P03372); test: condition: only in CSCs (cancer stem cells not exposed to FBS); co-IP; lysates of MCF-7 and ZR-75-1 CSCs (without FBS); antibody on Protein G-agarose beads, lysate 12 h at 4 °C, washed three times with ice-cold PBS, western blot

binding [1]: binds | binding [2]: no binding
Substance: Y-box binding protein 1 (YB-1) (from UniProt P67809 1-324)
